Assay [1] has as its target HYPE (103–445) L258D mutant (human) (UniProt Q9BVA6). The experiment in a line: SEC; analytical gel filtration of purified HYPE constructs; both purified.
The target is the same in assay [2]. Kind of assay: SAXS; small angle X-ray scattering of soluble HYPE constructs in solution; methods in Supplemental Experimental Procedures; both purified.

We go through one molecule from article PMC4342408 (Structure(London, England:1993), 2014).

Results are given in words; binding and its absence hold for the method and conditions named.

B1: HYPE (103–445) L258D mutant (domain or fragment, UniProt Q9BVA6 103-445)
chain: KLEARAALNQALEMKRQGKREKAQKLFMHALKMDPDFVDALTEFGIFSEEDKDIIQADYLYTRALTISPYHEKALVNRDRTLPLVEEIDQRYFSIIDSKVKKVMSIPKGNSALRRVMEETYYHHIYHTVAIEGNTLTLSEIRHILETRYAVPGKSDEEQNEVIGMHAAMKYINTTLVSRIGSVTISDVLEIHRRVLGYVDPVEAGRFRTTQVLVGHHIPPHPQDVEKQMQEFVQWLNSEEAMNLHPVEFAALAHYKLVYIHPFIDGNGRTSRLLMNLILMQAGYPPITIRKEQRSDYYHVLEAANEGDVRPFIRFIAKCTETTLDTLLFATTEYSVALPEAQP
Consider B1, for which the binding result in assay [1] and in assay [2] was “no binding” throughout.
